In PubChem BioAssay AID1671190 (National Center for Advancing Translational Sciences (NCATS), 2021):
Values joined by “and” are separate entries in the source; they are usually repeats but may differ in a detail not shown here. Identical values can stand only once. Screen size: about 580,000 compounds; about 6,100 (1.1%) were called active. The shares of active, inactive and inconclusive entries below differ from those in the screen. Calls come from the whole dose curve; as a rule, active = well fitted inhibition curve with a large enough effect; inconclusive = small, poorly fitted or top-dose-only effect, or another doubt; inactive = no such curve, though single readings can be large or run the other way. A potency beside an inconclusive call is a rough fit, not a confirmed value.

Sequences of proteins named here, by UniProt entry; tags and fusion partners are left off. A change or cut given only in a name is not applied to a line headed by its entry.
UniProt P18054: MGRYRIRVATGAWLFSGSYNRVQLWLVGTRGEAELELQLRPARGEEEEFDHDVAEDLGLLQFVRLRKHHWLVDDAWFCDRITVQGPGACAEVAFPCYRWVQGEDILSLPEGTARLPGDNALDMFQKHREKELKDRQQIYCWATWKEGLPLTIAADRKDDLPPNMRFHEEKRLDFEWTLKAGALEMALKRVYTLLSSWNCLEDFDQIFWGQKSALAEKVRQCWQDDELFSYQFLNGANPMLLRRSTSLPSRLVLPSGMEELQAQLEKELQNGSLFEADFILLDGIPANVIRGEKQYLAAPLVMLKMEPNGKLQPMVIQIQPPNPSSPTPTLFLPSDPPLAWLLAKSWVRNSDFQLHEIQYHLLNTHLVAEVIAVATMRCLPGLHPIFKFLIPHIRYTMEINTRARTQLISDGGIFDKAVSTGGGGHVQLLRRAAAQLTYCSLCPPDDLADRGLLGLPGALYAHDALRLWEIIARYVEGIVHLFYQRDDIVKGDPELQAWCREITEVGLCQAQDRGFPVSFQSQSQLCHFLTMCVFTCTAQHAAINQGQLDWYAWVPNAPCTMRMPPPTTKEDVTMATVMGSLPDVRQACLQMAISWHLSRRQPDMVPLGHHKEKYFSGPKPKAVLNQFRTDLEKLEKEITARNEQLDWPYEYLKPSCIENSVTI

Target: Polyunsaturated fatty acid lipoxygenase ALOX12 (Homo sapiens) (UniProt P18054)
Test: Primary qHTS assay for inhibitors of human arachidonate 12S-lipoxygenase (ALOX12): Round 2
Details: purified 12hLO, xylenol orange hydroperoxide absorbance; activity change, negative = inhibition: at 108 µM (top of the series) unless noted
Method in brief: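 Hydroperoxide product was detected by ferrous iron/xylenol orange as the 573 to 405 nm absorbance ratio. Arachidonic acid at 40 uM (final) was turned over for 30 min at room temperature by 150 nM human 12hLO, pH 7.0 Hepes buffer, after 15 min compound preincubation.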
% is set by controls: 0 for no effect and ±100 for the full control effect; potency is the fitted concentration of half-maximal effect.

Compound | Potency | activity change, negative = inhibition
CCN(CC)S(=O)(=O)c1cccc(C(=O)N[C@H](C(=O)OCC(=O)Nc2ccccc2)C(C)C)c1 | inconclusive: 141 µM [inhibitor, partial curve, poor fit] | –
CCOCCCNC(=O)c1cc(C)nc2ccc(C)cc12 | – | inactive: 11.3%
CC(=O)c1ccc(NC(=O)C(C)Nc2ccc3oc(C)nc3c2)cc1 (stereo unspecified) | inconclusive: 39.8 µM [inhibitor, partial curve, poor fit] | –
COc1ccc(NC(=O)c2sc3nc(N4CCOCC4)c4c(c3c2N)CCCC4)cc1 | inconclusive: 44.7 µM [inhibitor, partial curve, poor fit] | –
COc1cccc(CN2CC[C@@H]3CN(S(C)(=O)=O)[C@@H]3C2)c1OC | – | inactive: 18.5%
O=C(COC(=O)c1ccccn1)Nc1ccc(S(=O)(=O)N2CCOCC2)cc1 | inconclusive: 31.6 µM [inhibitor, partial curve, poor fit] | –
CS(=O)(=O)Nc1ccc(C(=O)NCCc2ccccc2)cc1 | inconclusive: 126 µM [inhibitor, single point] | –
Cc1cc(C)cc(Cn2cc(CN3CC(N4CCN(Cc5ccccc5F)CC4)CS3(=O)=O)nn2)c1 (stereo unspecified) | inconclusive: 3.98 µM [inhibitor, full curve] | –
Cc1ccc(/C(O)=C2\C(=O)C(=O)N(c3nc4ccccc4s3)C2c2ccc(O)cc2)cc1 (stereo unspecified) | active: 17.8 µM | –
NC(=O)Nn1c(CCC(=O)O)ccc1-c1ccc(Br)cc1 | inconclusive: 44.7 µM [inhibitor, partial curve] | –
Cc1ccc2[nH]cc(C(C(=O)O)N3CCN(c4ccccc4)CC3)c2c1 (stereo unspecified) | – | inactive: 69.7%
Cc1ccccc1CN(C)CC(=O)Nc1c(C)cccc1C(C)C | inconclusive: 126 µM [inhibitor, single point] | –
Cc1ccc(-c2noc(-c3ccccc3C(=O)N3CCCC3)n2)cc1 | – | inactive: 0%
O[C@@H]1C[C@@H](c2nc(-c3ccc4c(c3)OCO4)no2)N(Cc2ccncc2)C1 | inconclusive: 31.6 µM [inhibitor, full curve, poor fit] | –
NC(=O)c1ccccc1NS(=O)(=O)c1ccc2c(c1)OCCO2 | – | inactive: -3.14%
COc1ccccc1-n1c(-c2ccccc2)c[n+]2c1CCc1ccccc1-2 | inactive | –
C=CCOc1ccc(CN(C)CC(O)COc2cccc3ccccc23)cc1 (stereo unspecified) | inconclusive: 17.8 µM [inhibitor, partial curve] | –
Cn1c(=O)c(=O)n(C)c2cc(NS(=O)(=O)c3ccc(Br)cc3)c(Cl)cc21 | inconclusive: 126 µM [inhibitor, single point] | –
COc1ccccc1-c1cccc(-c2nc(C(=O)N3CCCCC3)cc3c2[C@@H](CCO)N(S(=O)C(C)(C)C)C3)c1 (stereo partly specified) | inconclusive: 31.6 µM [inhibitor, single point] | –
CC(C)NC(=O)c1cc(Cl)ccc1Cl | inconclusive: 0.178 µM [inhibitor, full curve, poor fit] | –
Cc1ccc2oc(=O)cc(CN3CCN(c4ccc(F)cc4)CC3)c2c1 | inconclusive: 100 µM [inhibitor, partial curve, poor fit] | –

Compound | Potency | activity change, negative = inhibition
Cc1ccc(-n2c(=O)c3cccnc3n2CC(=O)Nc2ccc(Cl)cc2)cc1 | inconclusive: 50.1 µM [inhibitor, partial curve, poor fit] | –
COc1ccc(NC2(c3nnnn3-c3ccc(C(C)C)cc3)CCCC2)cc1 | – | inactive: -11.4%
Cn1c(-c2ncc(F)cc2F)cc2onc(-c3c(F)cccc3Cl)c2c1=O | inconclusive: 89.1 µM [inhibitor, partial curve, poor fit] | –
COc1ccc(OC)c(NC(=O)C2CCc3nc(N4CCN(C(C)=O)CC4)sc3C2)c1 (stereo unspecified) | inconclusive: 10 µM [inhibitor, full curve] | –
Oc1cccc2c(NC(=S)Nc3ccc(OC(F)F)cc3)cccc12 | inconclusive: 39.8 µM [inhibitor, partial curve, poor fit] | –
CCOC(=O)/C(C#N)=N/Nc1ccc(S(=O)(=O)N2CCc3ccccc32)cc1 | inconclusive: 100 µM [inhibitor, partial curve, poor fit] | –
C[N+](C)(CC(=O)O)C[Si](C)(C)C | inconclusive: 44.7 µM [inhibitor, partial curve, poor fit] | –
O=C(NCc1ccccc1)c1nc(-c2c(F)cccc2F)oc1-c1ccccc1 | – | inactive: -4.87%
CCOC(=O)C1CCCCN1Cc1cccc(Oc2ccccc2)c1 (stereo unspecified) | active: 14.1 µM | –
O=C(CSc1ccccc1F)OCC(=O)N1CCN(C(=O)c2ccco2)CC1 | – | inactive: -38.7%
COC(=O)c1ccc(CNCc2ccccc2)o1 | – | inactive: -7.98%
CCNC(=S)N1CCN(c2ccc([N+](=O)[O-])cc2)CC1 | inconclusive: 25.1 µM [inhibitor, partial curve, poor fit] | –
O=c1[nH]c2ccccc2c(O)c1O | inconclusive: 5.62 µM [inhibitor, full curve, poor fit] | –
COc1cc2sc3ccc(-c4ccc5[nH]ccc5c4)cc3c(=O)c2cc1OC | – | inactive: -1.57%
Cc1cc2[nH]c(=O)c(=O)[nH]c2cc1S(=O)(=O)N1CCN(c2ccccc2)CC1 | inconclusive: 112 µM [inhibitor, partial curve, poor fit] | –
Cc1cccc(OCC(=O)NC(=S)N2CCCc3ccccc32)c1 | inconclusive: 2.51 µM [inhibitor, full curve, poor fit] | –
C=CCN(C(=O)CCC(=O)O)C1CC(=O)N(c2ccc(OC)cc2)C1=O (stereo unspecified) | inconclusive: 35.5 µM [inhibitor, single point] | –
CC(C)NC(=O)N1Cc2ccccc2OC2(CCN(C(=O)CCC(=O)O)CC2)C1 | – | inactive: -0.632% [at 6.33 µM] and inactive: 13.5% [at 6.33 µM]
O=C(/C=C/c1cccc(Cl)c1)c1ccc(N2CCOCC2)cc1 | inconclusive: 50.1 µM [inhibitor, partial curve, poor fit] | –
COc1ccc(C2C3C=CCC(c4cccc(-c5ccc(C)cc5)c4)C3C(=O)N2Cc2ccccc2)cc1Cl (stereo unspecified) | inconclusive: 79.4 µM [inhibitor, partial curve, poor fit] | –
